Test results from the supplement of paper PMC10849652.
Some of the results follow.

Protein sequences, listed by entry. Tags and fused reporters are not part of them. Lines headed by an entry give the natural chain unless they say otherwise; changes in a name come on top.
UniProt O60493, whole entry, looked up: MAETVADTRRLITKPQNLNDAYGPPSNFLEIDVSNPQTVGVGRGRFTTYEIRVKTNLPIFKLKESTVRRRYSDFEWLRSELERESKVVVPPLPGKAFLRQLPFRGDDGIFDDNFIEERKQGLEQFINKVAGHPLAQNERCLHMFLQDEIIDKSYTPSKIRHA
UniProt O00193: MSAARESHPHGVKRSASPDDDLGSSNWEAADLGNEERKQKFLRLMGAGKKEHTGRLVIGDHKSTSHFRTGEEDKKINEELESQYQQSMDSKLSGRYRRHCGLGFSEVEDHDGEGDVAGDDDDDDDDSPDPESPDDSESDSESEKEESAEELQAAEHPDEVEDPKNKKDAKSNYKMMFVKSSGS
UniProt Q02447: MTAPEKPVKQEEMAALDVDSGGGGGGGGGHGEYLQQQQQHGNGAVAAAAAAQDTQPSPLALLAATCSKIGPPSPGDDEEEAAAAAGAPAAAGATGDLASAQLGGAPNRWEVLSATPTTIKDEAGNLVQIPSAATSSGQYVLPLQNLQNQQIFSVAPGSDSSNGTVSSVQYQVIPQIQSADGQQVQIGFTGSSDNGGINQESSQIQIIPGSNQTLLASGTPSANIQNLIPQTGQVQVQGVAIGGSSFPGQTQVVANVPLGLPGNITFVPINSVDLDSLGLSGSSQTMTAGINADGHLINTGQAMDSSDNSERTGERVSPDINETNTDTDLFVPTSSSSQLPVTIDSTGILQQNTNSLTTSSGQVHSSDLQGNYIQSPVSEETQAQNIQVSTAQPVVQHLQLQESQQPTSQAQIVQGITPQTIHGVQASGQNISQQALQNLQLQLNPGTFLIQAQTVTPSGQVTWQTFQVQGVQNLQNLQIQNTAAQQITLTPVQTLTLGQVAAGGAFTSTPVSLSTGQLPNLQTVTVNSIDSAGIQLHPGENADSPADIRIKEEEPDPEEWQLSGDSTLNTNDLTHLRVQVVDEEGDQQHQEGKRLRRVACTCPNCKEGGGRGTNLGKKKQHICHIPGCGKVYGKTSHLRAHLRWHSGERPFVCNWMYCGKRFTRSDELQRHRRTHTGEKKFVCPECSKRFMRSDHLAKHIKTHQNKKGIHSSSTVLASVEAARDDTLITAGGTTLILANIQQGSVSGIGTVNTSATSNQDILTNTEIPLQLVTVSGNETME
UniProt Q9Y5X2: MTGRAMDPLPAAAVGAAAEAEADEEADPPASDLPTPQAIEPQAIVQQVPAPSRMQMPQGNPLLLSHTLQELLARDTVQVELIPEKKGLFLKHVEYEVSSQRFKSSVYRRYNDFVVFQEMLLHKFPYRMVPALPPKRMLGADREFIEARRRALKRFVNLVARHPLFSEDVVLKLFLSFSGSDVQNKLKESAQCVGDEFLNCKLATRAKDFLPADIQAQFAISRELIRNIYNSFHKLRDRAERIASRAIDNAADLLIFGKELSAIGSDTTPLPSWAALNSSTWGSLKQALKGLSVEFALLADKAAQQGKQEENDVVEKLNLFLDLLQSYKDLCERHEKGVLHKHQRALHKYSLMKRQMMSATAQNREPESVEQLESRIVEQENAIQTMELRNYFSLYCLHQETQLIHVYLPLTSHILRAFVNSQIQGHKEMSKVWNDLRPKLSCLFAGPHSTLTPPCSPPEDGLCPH
UniProt O60271: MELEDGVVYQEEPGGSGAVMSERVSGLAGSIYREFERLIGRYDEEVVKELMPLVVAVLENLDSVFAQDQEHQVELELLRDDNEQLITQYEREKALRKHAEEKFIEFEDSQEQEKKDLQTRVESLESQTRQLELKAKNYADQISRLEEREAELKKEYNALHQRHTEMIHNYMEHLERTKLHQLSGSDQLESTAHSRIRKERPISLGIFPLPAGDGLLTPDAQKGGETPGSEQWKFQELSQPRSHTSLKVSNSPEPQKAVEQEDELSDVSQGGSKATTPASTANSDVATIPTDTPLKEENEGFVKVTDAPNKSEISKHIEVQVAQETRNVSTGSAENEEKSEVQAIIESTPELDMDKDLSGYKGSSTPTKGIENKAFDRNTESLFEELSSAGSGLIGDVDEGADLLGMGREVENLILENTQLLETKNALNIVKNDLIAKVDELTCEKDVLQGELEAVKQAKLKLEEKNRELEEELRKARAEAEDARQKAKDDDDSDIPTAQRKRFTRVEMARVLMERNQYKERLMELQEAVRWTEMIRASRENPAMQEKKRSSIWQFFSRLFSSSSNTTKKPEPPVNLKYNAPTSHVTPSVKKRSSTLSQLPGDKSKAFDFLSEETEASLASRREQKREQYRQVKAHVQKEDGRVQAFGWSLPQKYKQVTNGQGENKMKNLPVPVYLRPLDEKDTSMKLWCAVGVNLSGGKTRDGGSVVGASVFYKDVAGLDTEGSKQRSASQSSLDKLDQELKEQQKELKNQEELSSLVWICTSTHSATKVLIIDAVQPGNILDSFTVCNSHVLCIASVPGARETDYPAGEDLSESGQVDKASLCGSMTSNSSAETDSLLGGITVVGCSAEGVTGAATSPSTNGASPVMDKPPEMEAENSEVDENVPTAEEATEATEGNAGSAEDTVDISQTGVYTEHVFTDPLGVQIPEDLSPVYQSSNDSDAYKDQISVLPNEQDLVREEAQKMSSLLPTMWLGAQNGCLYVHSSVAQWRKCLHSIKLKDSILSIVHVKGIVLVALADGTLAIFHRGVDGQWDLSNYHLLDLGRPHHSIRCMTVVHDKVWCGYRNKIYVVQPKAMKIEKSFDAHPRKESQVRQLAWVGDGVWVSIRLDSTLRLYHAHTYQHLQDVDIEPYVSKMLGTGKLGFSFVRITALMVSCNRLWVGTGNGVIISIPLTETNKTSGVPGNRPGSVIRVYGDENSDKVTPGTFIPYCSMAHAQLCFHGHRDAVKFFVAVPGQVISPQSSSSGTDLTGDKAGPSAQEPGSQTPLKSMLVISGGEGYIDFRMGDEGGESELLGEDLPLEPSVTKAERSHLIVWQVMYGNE
UniProt Q9NXE4: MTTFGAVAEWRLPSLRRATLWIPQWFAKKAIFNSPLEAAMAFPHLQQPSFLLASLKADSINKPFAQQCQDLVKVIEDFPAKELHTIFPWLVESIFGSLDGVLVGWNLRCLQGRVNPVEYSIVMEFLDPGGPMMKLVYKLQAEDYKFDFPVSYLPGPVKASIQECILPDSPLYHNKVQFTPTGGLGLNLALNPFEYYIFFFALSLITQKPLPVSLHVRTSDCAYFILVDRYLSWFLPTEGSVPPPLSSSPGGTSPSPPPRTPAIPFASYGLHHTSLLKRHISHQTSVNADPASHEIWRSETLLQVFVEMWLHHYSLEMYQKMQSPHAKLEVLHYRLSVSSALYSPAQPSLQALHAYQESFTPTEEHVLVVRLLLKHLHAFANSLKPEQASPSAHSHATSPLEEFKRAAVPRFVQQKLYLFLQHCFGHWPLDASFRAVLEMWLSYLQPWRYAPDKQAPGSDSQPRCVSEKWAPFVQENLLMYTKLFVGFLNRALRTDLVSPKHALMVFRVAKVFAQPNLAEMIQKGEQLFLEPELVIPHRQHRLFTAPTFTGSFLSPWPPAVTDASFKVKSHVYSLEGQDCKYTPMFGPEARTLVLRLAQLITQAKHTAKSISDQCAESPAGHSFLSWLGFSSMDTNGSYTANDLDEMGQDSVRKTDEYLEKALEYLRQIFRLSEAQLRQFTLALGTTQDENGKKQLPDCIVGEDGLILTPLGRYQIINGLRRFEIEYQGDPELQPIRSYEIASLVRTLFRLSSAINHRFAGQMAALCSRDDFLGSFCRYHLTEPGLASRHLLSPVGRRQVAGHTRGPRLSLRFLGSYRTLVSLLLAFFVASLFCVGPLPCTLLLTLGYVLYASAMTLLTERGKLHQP
UniProt Q7KZF4: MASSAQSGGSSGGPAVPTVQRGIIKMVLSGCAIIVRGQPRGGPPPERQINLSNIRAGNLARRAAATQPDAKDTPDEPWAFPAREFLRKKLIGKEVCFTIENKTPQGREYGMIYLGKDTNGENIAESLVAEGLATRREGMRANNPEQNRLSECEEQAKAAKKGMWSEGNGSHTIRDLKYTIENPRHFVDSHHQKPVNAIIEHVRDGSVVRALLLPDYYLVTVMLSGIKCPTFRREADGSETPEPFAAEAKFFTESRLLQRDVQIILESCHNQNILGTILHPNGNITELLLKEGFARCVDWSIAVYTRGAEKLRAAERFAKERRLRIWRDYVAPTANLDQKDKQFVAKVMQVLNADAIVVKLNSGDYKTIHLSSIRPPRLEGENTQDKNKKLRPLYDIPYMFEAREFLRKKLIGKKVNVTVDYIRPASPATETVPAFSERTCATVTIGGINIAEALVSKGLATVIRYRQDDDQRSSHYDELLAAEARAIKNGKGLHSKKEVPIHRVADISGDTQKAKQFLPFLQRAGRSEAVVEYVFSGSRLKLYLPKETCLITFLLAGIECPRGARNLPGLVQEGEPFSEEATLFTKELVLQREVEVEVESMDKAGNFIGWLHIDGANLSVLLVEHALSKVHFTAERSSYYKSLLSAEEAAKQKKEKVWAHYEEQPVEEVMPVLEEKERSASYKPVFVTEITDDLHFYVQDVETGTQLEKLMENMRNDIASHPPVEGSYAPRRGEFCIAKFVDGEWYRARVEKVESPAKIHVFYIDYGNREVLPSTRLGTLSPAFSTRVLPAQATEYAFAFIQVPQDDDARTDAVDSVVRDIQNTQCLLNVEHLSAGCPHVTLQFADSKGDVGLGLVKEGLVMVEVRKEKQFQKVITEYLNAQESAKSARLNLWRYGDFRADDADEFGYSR
UniProt Q7Z3B0: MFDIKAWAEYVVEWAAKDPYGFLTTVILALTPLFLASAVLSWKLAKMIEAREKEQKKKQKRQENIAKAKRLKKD
UniProt Q14BN4: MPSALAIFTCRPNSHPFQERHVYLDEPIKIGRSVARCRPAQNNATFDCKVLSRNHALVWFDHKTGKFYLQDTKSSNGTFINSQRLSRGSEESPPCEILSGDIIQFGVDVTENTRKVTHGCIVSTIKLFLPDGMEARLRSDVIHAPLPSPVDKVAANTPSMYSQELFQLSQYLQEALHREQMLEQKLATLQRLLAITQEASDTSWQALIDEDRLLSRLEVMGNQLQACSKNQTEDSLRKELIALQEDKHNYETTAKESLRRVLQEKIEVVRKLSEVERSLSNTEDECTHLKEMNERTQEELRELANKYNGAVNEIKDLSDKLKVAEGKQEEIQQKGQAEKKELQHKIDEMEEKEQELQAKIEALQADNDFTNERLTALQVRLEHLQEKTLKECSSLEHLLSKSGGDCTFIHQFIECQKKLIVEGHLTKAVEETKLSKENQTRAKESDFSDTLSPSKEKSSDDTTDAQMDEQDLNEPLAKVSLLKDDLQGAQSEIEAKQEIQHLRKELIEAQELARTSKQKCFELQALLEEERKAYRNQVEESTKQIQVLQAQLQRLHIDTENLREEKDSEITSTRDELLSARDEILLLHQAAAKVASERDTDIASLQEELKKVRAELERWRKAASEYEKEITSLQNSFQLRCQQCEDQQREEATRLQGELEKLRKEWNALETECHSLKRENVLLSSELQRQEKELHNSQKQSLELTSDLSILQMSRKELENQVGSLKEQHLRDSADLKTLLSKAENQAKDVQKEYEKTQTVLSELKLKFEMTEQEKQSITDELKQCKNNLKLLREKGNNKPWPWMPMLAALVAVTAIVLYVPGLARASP
UniProt Q9Y5W9: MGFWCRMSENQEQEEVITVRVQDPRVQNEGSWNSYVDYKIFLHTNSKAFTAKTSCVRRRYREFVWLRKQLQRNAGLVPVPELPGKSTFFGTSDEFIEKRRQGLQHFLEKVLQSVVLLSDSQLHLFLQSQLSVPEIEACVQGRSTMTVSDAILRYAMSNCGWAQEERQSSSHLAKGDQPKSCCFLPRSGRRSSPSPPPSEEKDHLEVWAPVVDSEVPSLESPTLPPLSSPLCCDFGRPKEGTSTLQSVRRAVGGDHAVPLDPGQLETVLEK
UniProt Q96BD0: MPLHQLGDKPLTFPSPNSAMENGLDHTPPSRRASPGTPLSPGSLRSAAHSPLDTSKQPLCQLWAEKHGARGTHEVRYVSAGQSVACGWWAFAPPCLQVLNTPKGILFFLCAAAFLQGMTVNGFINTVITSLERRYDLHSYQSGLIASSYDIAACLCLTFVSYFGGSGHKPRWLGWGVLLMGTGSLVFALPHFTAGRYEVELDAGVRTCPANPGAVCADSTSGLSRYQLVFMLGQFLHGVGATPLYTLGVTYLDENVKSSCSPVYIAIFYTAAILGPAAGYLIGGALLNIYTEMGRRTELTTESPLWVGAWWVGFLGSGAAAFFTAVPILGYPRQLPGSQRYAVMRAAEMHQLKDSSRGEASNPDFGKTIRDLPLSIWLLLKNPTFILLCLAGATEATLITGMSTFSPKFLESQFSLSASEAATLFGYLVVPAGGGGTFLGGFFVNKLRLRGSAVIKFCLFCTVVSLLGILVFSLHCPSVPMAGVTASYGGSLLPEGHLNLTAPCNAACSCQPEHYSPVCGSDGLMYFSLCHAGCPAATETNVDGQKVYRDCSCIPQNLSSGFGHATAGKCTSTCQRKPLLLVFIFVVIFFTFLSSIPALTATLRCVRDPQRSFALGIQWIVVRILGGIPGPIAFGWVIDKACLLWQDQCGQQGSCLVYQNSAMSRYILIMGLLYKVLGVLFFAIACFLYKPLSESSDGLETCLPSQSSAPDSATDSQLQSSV

Key:
Assay in all cases: log2 fold change, soluble protein after heating vs DMSO (PISA); higher = thermal stabilisation; K562 cells, 10 uM, 30 min; active = over 0.2 and 3.5 SD of the protein, either way, in both replicates (recomputed)
[1] = compound: C1=CC=C(C=C1)[C@H](COC2=CC3=C(C=C2)NC(=O)N3)NC(=O)C4=CC=CN(C4=O)CC5=CC(=C(C=C5)F)F
How it was run: (§1)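 Soluble protein was quantified by TMTpro 16plex LC-MS/MS after channel sums were equalised. It was obtained as the supernatant after 21,000xg for 90 min from pooled aliquots of K562 cells (2×10^6 cells/mL, 10 μM compound, 30 min) heated for 3 min across 48°C-58°C and extracted in PBS with 0.5% NP-40 at 4°C. Thermal stability values are relative to control samples and come from duplicates. They are given as log2 fold changes.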

[2] = compound: CC1=C(SC2=C1C(=N[C@H](C3=NN=C(N32)C)CC(=O)N)C4=CC=C(C=C4)Cl)C
How it was run: as §1

[3] = compound: CC1=C2C(=CC=C1)N=C(N(C2=O)C3=CC=CC=C3C)CN4C=NC5=C(N=CN=C54)N
How it was run: as §1

[4] = compound: Cc1sc2c(c1C)C(c1ccc(Cl)cc1)=N[C@@H](CC(=O)OC(C)(C)C)c1nnc(C)n1-2
How it was run: as §1

[5] = compound: c1ccc([C@@H]2C[C@H]2NC2CCNCC2)cc1
How it was run: as §1

Measured: log2 fold change

SNX17 (UniProt Q15036)
inactive: [1] -0.072 | [2] -0.025 | [3] 0.117 | [4] 0.239 | [5] 0.119

SMS (UniProt P52788)
inactive: [1] 0.002 | [2] 0.001 | [3] 0.003 | [4] -0.007 | [5] 0.023

SNUPN (UniProt O95149)
inactive: [1] -0.027 | [2] 0.051 | [3] 0.067 | [4] 0.03 | [5] 0.021

SNX3 (UniProt O60493)
inactive: [1] -0.057 | [2] 0 | [3] 0.105 | [4] -0.006 | [5] -0.064

SP1 (UniProt P08047)
inactive: [1] 0.002 | [2] -0.029 | [3] 0.016 | [4] 0.051 | [5] 0.02

SP6 (UniProt Q3SY56)
inactive: [1] -0.009 | [2] -0.037 | [3] -0.295 | [4] -0.124 | [5] 0

SMAP (UniProt O00193)
inactive: [1] -0.082 | [2] 0.011 | [3] 0.03 | [4] -0.039 | [5] 0.003

SNRPE (UniProt P62304)
inactive: [1] 0.011 | [2] 0.027 | [3] 0.031 | [4] 0.007 | [5] 0.064

SMARCA5 (UniProt O60264)
inactive: [1] -0.168 | [2] 0.063 | [3] 0.105 | [4] -0.026 | [5] -0.006

SMARCA1 (UniProt P28370)
inactive: [1] -0.147 | [2] -0.004 | [3] 0.163 | [4] 0 | [5] 0.068

SORD (UniProt Q00796)
inactive: [1] 0.02 | [2] 0.033 | [3] 0.045 | [4] -0.014 | [5] 0.05

SLC9A3R2 (UniProt Q15599)
inactive: [1] -0.013 | [2] 0.056 | [3] 0.016 | [4] -0.003 | [5] 0.03

SP3 (UniProt Q02447)
inactive: [1] 0.018 | [2] -0.024 | [3] -0.043 | [4] 0.025 | [5] 0.009

SPAG7 (UniProt O75391)
inactive: [1] 0.021 | [2] 0.071 | [3] 0.007 | [4] -0.019 | [5] 0.015

SNX8 (UniProt Q9Y5X2)
inactive: [1] 0.009 | [2] 0.041 | [3] 0.008 | [4] -0.021 | [5] 0.066

SNRPD2 (UniProt K7EJB5)
inactive: [1] 0.016 | [2] -0.066 | [3] 0.104 | [4] 0.118 | [5] 0.03

SMC1A (UniProt Q14683)
inactive: [1] 0.002 | [2] 0.02 | [3] 0.05 | [4] -0.017 | [5] 0.001

SLIRP (UniProt Q9GZT3)
inactive: [1] -0.038 | [2] -0.073 | [3] 0.01 | [4] -0.016 | [5] 0.042

SPAG9 isoform 4 (UniProt O60271)
inactive: [1] 0.15 | [2] 0.006 | [3] -0.048 | [4] 0.028 | [5] 0.025

SNAP29 (UniProt O95721)
inactive: [1] -0.004 | [2] 0.007 | [3] 0.029 | [4] 0.003 | [5] 0.015

SP100 isoform 4 (UniProt P23497)
inactive: [1] -0.006 | [2] -0.015 | [3] -0.047 | [4] 0 | [5] 0.024

SMPD4 isoform 2 (UniProt Q9NXE4)
inactive: [1] -0.25 | [2] -0.029 | [3] -0.048 | [4] -0.061 | [5] -0.097

SMYD5 (UniProt Q6GMV2)
inactive: [1] -0.038 | [2] 0.04 | [3] 0.029 | [4] -0.001 | [5] 0.003

SMC3 (UniProt Q9UQE7)
inactive: [1] -0.014 | [2] 0.031 | [3] 0.058 | [4] 0.005 | [5] 0.002

SMG1 (UniProt Q96Q15)
inactive: [1] -0.104 | [2] 0.003 | [3] -0.004 | [4] 0.02 | [5] -0.071

SMIM8 (UniProt Q96KF7)
inactive: [1] 0.085 | [2] 0.096 | [3] 0.132 | [4] -0.015 | [5] 0.011

SMG8 isoform 2 (UniProt Q8ND04)
inactive: [1] -0.002 | [2] 0.108 | [3] 0.144 | [4] -0.049 | [5] 0.044

SND1 (UniProt Q7KZF4)
inactive: [1] 0.08 | [2] -0.22 | [3] -0.144 | [4] 0.356 | [5] -0.002

SMC1B isoform 3 (UniProt Q8NDV3)
inactive: [1] 0.115 | [2] 0.012 | [3] 0.124 | [4] 0.021 | [5] 0.058

SNW1 (UniProt Q13573)
inactive: [1] 0.03 | [2] 0.015 | [3] -0.036 | [4] 0.055 | [5] -0.035

SLFN14 (UniProt P0C7P3)
inactive: [1] -0.189 | [2] 0.043 | [3] -0.869 | [4] 0.39 | [5] 0.007

SMAP1 isoform 2 (UniProt Q8IYB5)
inactive: [1] 0.015 | [2] 0.047 | [3] -0.013 | [4] 0.02 | [5] 0.014

SNRPA1 (UniProt P09661)
inactive: [1] 0.024 | [2] -0.009 | [3] -0.032 | [4] 0.057 | [5] 0.019

SMIM15 (UniProt Q7Z3B0)
inactive: [1] 0.115 | [2] 0.011 | [3] -0.105 | [4] -0.095 | [5] 0.017

SNAP23 (UniProt O00161)
inactive: [1] 0.014 | [2] -0.001 | [3] 0.002 | [4] -0.008 | [5] 0.049

16 neighbouring records out of the list so far, quoted:
SMC1A (UniProt Q14683)
inactive: [1] 0.002 | [2] 0.02 | [3] 0.05 | [4] -0.017 | [5] 0.001

SLIRP (UniProt Q9GZT3)
inactive: [1] -0.038 | [2] -0.073 | [3] 0.01 | [4] -0.016 | [5] 0.042

SPAG9 isoform 4 (UniProt O60271)
inactive: [1] 0.15 | [2] 0.006 | [3] -0.048 | [4] 0.028 | [5] 0.025

SNAP29 (UniProt O95721)
inactive: [1] -0.004 | [2] 0.007 | [3] 0.029 | [4] 0.003 | [5] 0.015

SP100 isoform 4 (UniProt P23497)
inactive: [1] -0.006 | [2] -0.015 | [3] -0.047 | [4] 0 | [5] 0.024

SMPD4 isoform 2 (UniProt Q9NXE4)
inactive: [1] -0.25 | [2] -0.029 | [3] -0.048 | [4] -0.061 | [5] -0.097

SMYD5 (UniProt Q6GMV2)
inactive: [1] -0.038 | [2] 0.04 | [3] 0.029 | [4] -0.001 | [5] 0.003

SMC3 (UniProt Q9UQE7)
inactive: [1] -0.014 | [2] 0.031 | [3] 0.058 | [4] 0.005 | [5] 0.002

SMG1 (UniProt Q96Q15)
inactive: [1] -0.104 | [2] 0.003 | [3] -0.004 | [4] 0.02 | [5] -0.071

SMIM8 (UniProt Q96KF7)
inactive: [1] 0.085 | [2] 0.096 | [3] 0.132 | [4] -0.015 | [5] 0.011

SMG8 isoform 2 (UniProt Q8ND04)
inactive: [1] -0.002 | [2] 0.108 | [3] 0.144 | [4] -0.049 | [5] 0.044

SND1 (UniProt Q7KZF4)
inactive: [1] 0.08 | [2] -0.22 | [3] -0.144 | [4] 0.356 | [5] -0.002

SMC1B isoform 3 (UniProt Q8NDV3)
inactive: [1] 0.115 | [2] 0.012 | [3] 0.124 | [4] 0.021 | [5] 0.058

SNW1 (UniProt Q13573)
inactive: [1] 0.03 | [2] 0.015 | [3] -0.036 | [4] 0.055 | [5] -0.035

SLFN14 (UniProt P0C7P3)
inactive: [1] -0.189 | [2] 0.043 | [3] -0.869 | [4] 0.39 | [5] 0.007

SMAP1 isoform 2 (UniProt Q8IYB5)
inactive: [1] 0.015 | [2] 0.047 | [3] -0.013 | [4] 0.02 | [5] 0.014

(next part)

SMYD3 (UniProt Q9H7B4)
inactive: [1] -0.119 | [2] 0.041 | [3] 0.105 | [4] -0.085 | [5] -0.355

SLMAP (UniProt Q14BN4)
inactive: [1] 0.022 | [2] -0.02 | [3] 0.063 | [4] 0.087 | [5] 0.02

SNRNP70 (UniProt P08621)
inactive: [1] 0.099 | [2] -0.126 | [3] -0.09 | [4] 0.168 | [5] 0.007

SNX2 (UniProt O60749)
inactive: [1] -0.015 | [2] 0.069 | [3] 0.066 | [4] -0.026 | [5] -0.079

SPAG9 (UniProt O60271)
inactive: [1] -0.033 | [2] 0.002 | [3] 0.071 | [4] 0.024 | [5] -0.006

SNU13, A0A3B3IUA2
inactive: [1] -0.092 | [2] 0.063 | [3] 0.159 | [4] 0.107 | [5] 0.044

SMPD4 isoform 4 (UniProt Q9NXE4)
inactive: [1] -0.094 | [2] 0.031 | [3] 0.043 | [4] -0.034 | [5] -0.104

SNRPC (UniProt Q5TAL2)
inactive: [1] 0.132 | [2] 0.109 | [3] 0.071 | [4] -0.05 | [5] -0.135

SMNDC1 (UniProt O75940)
inactive: [1] 0.072 | [2] 0.015 | [3] -0.066 | [4] 0.047 | [5] 0.044

SNX1 (UniProt Q13596)
inactive: [1] -0.019 | [2] 0.029 | [3] 0.038 | [4] -0.003 | [5] -0.07

SOX7 isoform 2 (UniProt Q9BT81)
inactive: [1] 0.112 | [2] -0.26 | [3] -0.205 | [4] 0.181 | [5] 0.03

SMARCE1 (UniProt Q969G3)
inactive: [1] -0.156 | [2] -0.002 | [3] 0.338 | [4] 0.111 | [5] -0.051

SNRPD2 (UniProt P62316)
inactive: [1] 0.016 | [2] -0.049 | [3] -0.085 | [4] 0.079 | [5] 0.044

SMC6 isoform 2 (UniProt Q96SB8)
inactive: [1] -0.09 | [2] 0.041 | [3] 0.005 | [4] 0.042 | [5] 0.002

SNX11 (UniProt Q9Y5W9)
inactive: [1] 0.004 | [2] 0.063 | [3] 0.108 | [4] 0.057 | [5] -0.027

SLCO4A1 (UniProt Q96BD0)
inactive: [1] 0.225 | [2] 0.162 | [3] -0.047 | [4] -0.009 | [5] -0.034

SMG7 isoform 4 (UniProt Q92540)
inactive: [1] 0.152 | [2] -0.115 | [3] 0.103 | [4] 0.022 | [5] 0.022

SORBS1 isoform 12 (UniProt Q9BX66)
inactive: [1] -0.04 | [2] 0.06 | [3] 0.072 | [4] 0.019 | [5] -0.014
